# Publication PMC7819943, “Rice protein-binding microarrays: a tool to detect cis-acting elements near promoter regions in rice”
# Protein sequences, listed by entry. Tags and fused reporters are not part of them.
# UniProt Q0JBA9, entry or part of it: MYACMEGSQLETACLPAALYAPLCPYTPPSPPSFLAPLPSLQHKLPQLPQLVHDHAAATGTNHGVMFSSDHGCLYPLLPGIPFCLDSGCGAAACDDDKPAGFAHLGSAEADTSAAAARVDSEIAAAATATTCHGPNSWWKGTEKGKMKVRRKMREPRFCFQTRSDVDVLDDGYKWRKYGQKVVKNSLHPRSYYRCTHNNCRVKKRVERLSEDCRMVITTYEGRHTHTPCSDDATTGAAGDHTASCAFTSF
# Some of the results follow.
# Biological target: OsWRKY34 (Oryza sativa, UniProt Q0JBA9 1-250)
# Assay: protein-binding microarray (RPBM); PBS, 2% BSA, 51.3 ng/ul salmon testes DNA, 50 uM zinc acetate, 200 nM TF, 25 C, 1 h; high values mean tight binding
# Conditions: protein: recombinant; tags: N-terminal polyhistidine and DsRed monomer fusion (pET32a); label: CyDye5-dUTP incorporated in the synthesized complementary strand; 3' TTTTT single-stranded linker to array surface; dsDNA, one strand shown
# Summary of the method: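 An Axon 4000B scanner gave the binding signal as per-feature fluorescence intensity in arbitrary units. This followed washing of a custom Agilent array that had been incubated for 1 h at 25 °C with 200 nM protein in PBS, 2% BSA, salmon testes DNA and 50 µM zinc acetate. The proteins were transcription factors fused at the N-terminus to polyhistidine and DsRed, expressed in E. coli BL21-CodonPlus and purified on Ni–NTA.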
row,Sequence,binding signal
1,GCCACCGCCTCCCCTCCCGCGCGTACGCCGCGGCCGCCAACGGAGTCACCTAGTGCAG,9520 fluorescence intensity (a.u.)
2,TTGCTGTTCTTTTTTTCCCCTCTCTCTTTTAATACTTTTACGGAGTCACCTAGTGCAG,9760 fluorescence intensity (a.u.)
3,TCCATCGCGCGTCGTCTCCACCTTTGTTGCTTGTGCCACCCGGAGTCACCTAGTGCAG,10200 fluorescence intensity (a.u.)
4,AATAAGACGAATGGTCAAACATGTACTAAAAAGTCAACGGCGGAGTCACCTAGTGCAG,13200 fluorescence intensity (a.u.)
5,GCTCTCCTTGCTGTCAAGTCGGCCCTCGGCAACCCGCCGGCGGAGTCACCTAGTGCAG,8310 fluorescence intensity (a.u.)
6,CATCTTGTCTTCGTCTTCCCCACTTGGAATCCTTCACTTCCGGAGTCACCTAGTGCAG,9320 fluorescence intensity (a.u.)
7,TAGCCGGGGCAGCCCACAACTGACATATTATTCTCATGATCGGAGTCACCTAGTGCAG,9170 fluorescence intensity (a.u.)
8,AAATTTCGATGTTCATTTTTTATCGCCTCGCCTTGCATATCGGAGTCACCTAGTGCAG,8370 fluorescence intensity (a.u.)
9,CGTCACGCAGGCCTCCGTCGCGCCCACCGTCGCCACCTACCGGAGTCACCTAGTGCAG,8990 fluorescence intensity (a.u.)
10,TTCCATCCCCATCCAGGACTTTGATGATCTCTTCTCTTGACGGAGTCACCTAGTGCAG,8200 fluorescence intensity (a.u.)
11,TTATATCAGAAATCAACAGCGTCATCTACTTCCTCTGTTTCGGAGTCACCTAGTGCAG,8830 fluorescence intensity (a.u.)
12,ATAGCCAACTATTACTTTTAAATTATTTATAGTCAAATTTCGGAGTCACCTAGTGCAG,9190 fluorescence intensity (a.u.)
13,ATTAGCTGAATCCATCTGACCCAAATTTCTTCTCTATTAGCGGAGTCACCTAGTGCAG,8620 fluorescence intensity (a.u.)
14,ACGATGATTATGTACGATTTACGGTTGTGTATTTCATAGTCGGAGTCACCTAGTGCAG,8460 fluorescence intensity (a.u.)
15,TCTGCATCCCATACGCACACAATACCTCCATCGTATGCCACGGAGTCACCTAGTGCAG,9080 fluorescence intensity (a.u.)
16,CCTACCACGATCTCCGGCGTCCCCATCCGCGCCTCCAACTCGGAGTCACCTAGTGCAG,8650 fluorescence intensity (a.u.)
17,GCGCACTGGTTAAATCCGTATTTTTTTTTCTCACGTATCTCGGAGTCACCTAGTGCAG,9650 fluorescence intensity (a.u.)
18,GCTCAGCCGCCGTCGCCAGTCCAACCTCCGCCACCGCGGCCGGAGTCACCTAGTGCAG,8640 fluorescence intensity (a.u.)
19,CTTGGTGTCTTTATCGTGTTTGGATCTCCTATGGCGTATCCGGAGTCACCTAGTGCAG,8300 fluorescence intensity (a.u.)
20,TGCACGTGGATCAGAAGCACACCTACCGGTCCAATTTACCCGGAGTCACCTAGTGCAG,8550 fluorescence intensity (a.u.)
21,AAACCCCTTGTCGTCTTCTCCATTGCGACACTGAAACTCACGGAGTCACCTAGTGCAG,10600 fluorescence intensity (a.u.)

# Nothing new here: entries from further up.
row,Sequence,binding signal
9,CGTCACGCAGGCCTCCGTCGCGCCCACCGTCGCCACCTACCGGAGTCACCTAGTGCAG,8990 fluorescence intensity (a.u.)
10,TTCCATCCCCATCCAGGACTTTGATGATCTCTTCTCTTGACGGAGTCACCTAGTGCAG,8200 fluorescence intensity (a.u.)
11,TTATATCAGAAATCAACAGCGTCATCTACTTCCTCTGTTTCGGAGTCACCTAGTGCAG,8830 fluorescence intensity (a.u.)
12,ATAGCCAACTATTACTTTTAAATTATTTATAGTCAAATTTCGGAGTCACCTAGTGCAG,9190 fluorescence intensity (a.u.)
13,ATTAGCTGAATCCATCTGACCCAAATTTCTTCTCTATTAGCGGAGTCACCTAGTGCAG,8620 fluorescence intensity (a.u.)
14,ACGATGATTATGTACGATTTACGGTTGTGTATTTCATAGTCGGAGTCACCTAGTGCAG,8460 fluorescence intensity (a.u.)
15,TCTGCATCCCATACGCACACAATACCTCCATCGTATGCCACGGAGTCACCTAGTGCAG,9080 fluorescence intensity (a.u.)
16,CCTACCACGATCTCCGGCGTCCCCATCCGCGCCTCCAACTCGGAGTCACCTAGTGCAG,8650 fluorescence intensity (a.u.)
17,GCGCACTGGTTAAATCCGTATTTTTTTTTCTCACGTATCTCGGAGTCACCTAGTGCAG,9650 fluorescence intensity (a.u.)
18,GCTCAGCCGCCGTCGCCAGTCCAACCTCCGCCACCGCGGCCGGAGTCACCTAGTGCAG,8640 fluorescence intensity (a.u.)
19,CTTGGTGTCTTTATCGTGTTTGGATCTCCTATGGCGTATCCGGAGTCACCTAGTGCAG,8300 fluorescence intensity (a.u.)

# Next entries

row,Sequence,binding signal
1,TTGCTCCCTGCTTTGGTTACTTGGCTACTTGCAATACACTCGGAGTCACCTAGTGCAG,8930 fluorescence intensity (a.u.)
2,GATTTTTTTTCCTGTTTATTTTTTTTGTTTTTTCTTTGAACGGAGTCACCTAGTGCAG,13800 fluorescence intensity (a.u.)
3,CGCTATCCGAACACAGCCTTAGTATTCTTCTGCAGCGGCCCGGAGTCACCTAGTGCAG,10800 fluorescence intensity (a.u.)
4,TCCCTATCTGTCTCCTCTCTCTCTCTCTCTCCTTGTGACTCGGAGTCACCTAGTGCAG,10500 fluorescence intensity (a.u.)
5,CCGTTTTTTATACATTATTATACCTTTTCTTGCTCTTTTGCGGAGTCACCTAGTGCAG,9100 fluorescence intensity (a.u.)
6,TATCTGCATGTTTCTGTTTTTTTTTCGAATAAACGCATGACGGAGTCACCTAGTGCAG,8250 fluorescence intensity (a.u.)
7,AATTCGGGGTTTGGGGCCGCGGAGGGGTGCTTACGTGAGTCGGAGTCACCTAGTGCAG,15100 fluorescence intensity (a.u.)
8,CACGTCTGGAAATGGGTGTCCGGCCTCTTCTTGCATCACTCGGAGTCACCTAGTGCAG,10700 fluorescence intensity (a.u.)
9,CTCCCTTTTTATCCTTTTTTTTTCTCCACTTTGCCTCCTTCGGAGTCACCTAGTGCAG,11100 fluorescence intensity (a.u.)
10,CCCCGGGCCAGAGCCGAACCATTTGGCCATCTATAACCCACGGAGTCACCTAGTGCAG,8130 fluorescence intensity (a.u.)
11,ACCGGTCCCTTTGTCAGTTATAAGCTATACATATCGATCGCGGAGTCACCTAGTGCAG,8030 fluorescence intensity (a.u.)
12,AACTTTTTCATGTCACTTCACTTTTTTTTGTTAGCAGCCTCGGAGTCACCTAGTGCAG,11200 fluorescence intensity (a.u.)
13,TCAATGCCCCAACCACATTTTGCGCCTCAGTTACTCCACTCGGAGTCACCTAGTGCAG,9100 fluorescence intensity (a.u.)
14,CATGTTAGTGTTGCATAGTTTAGTTATCCGTACAGTACTCCGGAGTCACCTAGTGCAG,9600 fluorescence intensity (a.u.)
15,AGAGGGATAGTACGGGTGTGTGTGATTACAAGTAGCTTTTCGGAGTCACCTAGTGCAG,8670 fluorescence intensity (a.u.)
16,GTCTCCGCGCGCGCTCTCTCTTTCGTTCACTCTCGCTTTCCGGAGTCACCTAGTGCAG,14500 fluorescence intensity (a.u.)
17,TGTGTAGTTTGTGAGGGCCAGAAGTTTCTTGGCAAGCTGTCGGAGTCACCTAGTGCAG,8130 fluorescence intensity (a.u.)
18,ACGTTTGACCCTTTGTTTTATTCAATTTTTTTGTGTAAATCGGAGTCACCTAGTGCAG,8290 fluorescence intensity (a.u.)
19,TGTTGACTAATGCATGTTTCTCTCATCGATCTTATAGGTTCGGAGTCACCTAGTGCAG,9450 fluorescence intensity (a.u.)
20,TACTGATGAGCCACTGACGGGTGGGGCCAGTTGACTGACACGGAGTCACCTAGTGCAG,8850 fluorescence intensity (a.u.)
21,ATTAGTGGCCTGATCTGATTCAAATCTCACACCCGCAAAACGGAGTCACCTAGTGCAG,9200 fluorescence intensity (a.u.)

row,Sequence,binding signal
1,TCGTCATATCAGGAGCTGCATGCAATGTCGATTTGTTTCCCGGAGTCACCTAGTGCAG,8530 fluorescence intensity (a.u.)
2,GCTGAGTTTGGCCTGGCTAGATAGATACATATGCAACCGTCGGAGTCACCTAGTGCAG,8210 fluorescence intensity (a.u.)
3,CTTCATCATTTGGTGTGTGCGGGATGGCGGTTCTCATTTTCGGAGTCACCTAGTGCAG,8120 fluorescence intensity (a.u.)
4,CTATTGCAGTCTACCTCCTATCGTTTGTCTGCTTTCTTTTCGGAGTCACCTAGTGCAG,11500 fluorescence intensity (a.u.)
5,GTTGCAGTAGCTTGTCGACTTTGTACCATGTTGTTTGAGACGGAGTCACCTAGTGCAG,10100 fluorescence intensity (a.u.)
6,CCATCTGAATTCACATTTAAGTTAATCGGCCACTCTGTTTCGGAGTCACCTAGTGCAG,8340 fluorescence intensity (a.u.)
7,AAGCCCGTTTCTTATTTGTACCTACCAAACCGTCGGAAACCGGAGTCACCTAGTGCAG,8600 fluorescence intensity (a.u.)
8,TCGCTCTCGCGTCGCGTCCAGGTGCAGCCGTCGTTCTGTTCGGAGTCACCTAGTGCAG,9960 fluorescence intensity (a.u.)
9,GGTCCCATCTTTGACACGGTCAATGCCGTCTCTGCCCCACCGGAGTCACCTAGTGCAG,8550 fluorescence intensity (a.u.)
10,GTGGTGGTGGCGGTGGTGGTCCGGCGATGTTGCTGGTGGCCGGAGTCACCTAGTGCAG,11500 fluorescence intensity (a.u.)
11,TTGTTTGTTATCTTCTCCTTCCTTATTATAAGTTTATCATCGGAGTCACCTAGTGCAG,10500 fluorescence intensity (a.u.)
12,AATATGCCGTTTCTTTTTTTTTCTTTGAATCTGCCAAACGCGGAGTCACCTAGTGCAG,8580 fluorescence intensity (a.u.)
13,CCGCTTGCCAACTTAACCGCACTCGCCACTTCTCGGTTGTCGGAGTCACCTAGTGCAG,8200 fluorescence intensity (a.u.)
14,GCTTCCTAAACCACCCAGAGACATAGTTTCCATCGGTTTTCGGAGTCACCTAGTGCAG,8800 fluorescence intensity (a.u.)
15,TCCTTTTGCTTTCTTTCTTTTGTGTTTTTCAAATTTCTACCGGAGTCACCTAGTGCAG,9810 fluorescence intensity (a.u.)
16,ATATTCCCTTACAGCCCTACACACGTTTTGGAGTTTTAACCGGAGTCACCTAGTGCAG,10000 fluorescence intensity (a.u.)
17,GAACAAAACCCATCTCATCTCCTTGACTCCTTCCCTGTACCGGAGTCACCTAGTGCAG,8630 fluorescence intensity (a.u.)
18,CCTAATTATCTCTCTCTCCCTACCACGTCGTCTTCTCTTCCGGAGTCACCTAGTGCAG,9340 fluorescence intensity (a.u.)
19,CACCGAGCCGCCTCCTTCTTTCACCACGCGGTGGATCACCCGGAGTCACCTAGTGCAG,8140 fluorescence intensity (a.u.)
20,GTCCAGAGTGTTCCCGCACCTCTGTATATTTTTCTCCCTCCGGAGTCACCTAGTGCAG,8590 fluorescence intensity (a.u.)
21,TTCCATTCCTTCCGTGCTCGATAATTACTGTTTTAATCACCGGAGTCACCTAGTGCAG,10800 fluorescence intensity (a.u.)

row,Sequence,binding signal
1,ATTTAATTTCTCCTTGGTCTTTGTGACAATAGTAATATGTCGGAGTCACCTAGTGCAG,9200 fluorescence intensity (a.u.)
2,CTTTATTTTCTGGGGTTAAATTTCTTGTCGGTTCCACTTACGGAGTCACCTAGTGCAG,15800 fluorescence intensity (a.u.)
3,TTGTCTTCTTGTTTGACTGACGTATGAGCCCACATATTTTCGGAGTCACCTAGTGCAG,9460 fluorescence intensity (a.u.)
4,CGCCACCTTCTCTCTTCTCTTCTCCTCTCCTCTCGTCTCCCGGAGTCACCTAGTGCAG,8140 fluorescence intensity (a.u.)
5,ACGTAGACGCGTGGTGTGGTTGTATATTTTCTTTTTCCTGCGGAGTCACCTAGTGCAG,10800 fluorescence intensity (a.u.)
6,ACGGTCCTCACGGCTTTTTCACATCTCACATCTCGCACTCCGGAGTCACCTAGTGCAG,10900 fluorescence intensity (a.u.)
7,TGCAGTGGCTCCGTCGCTCAGTGAACATCCAGTCCCATTTCGGAGTCACCTAGTGCAG,9900 fluorescence intensity (a.u.)
8,CTTGCACAAATTGGTTTGCCAACTATCACCACGAGGCTCTCGGAGTCACCTAGTGCAG,8650 fluorescence intensity (a.u.)
9,AAAAGACAAACCCTAATTTCCATGTCCAACGTTTGACCGTCGGAGTCACCTAGTGCAG,9670 fluorescence intensity (a.u.)
10,TTTCGTTAGCTCACCATTGGAATCCAGTTTCCATTCACTCCGGAGTCACCTAGTGCAG,10600 fluorescence intensity (a.u.)
11,GTCATCTACCAGCATACAGTGCTTGGCCATCATTCATGCACGGAGTCACCTAGTGCAG,8430 fluorescence intensity (a.u.)
12,CAATCGTCCGTCAGCAAGCACACACCCCGACTGTGTCGATCGGAGTCACCTAGTGCAG,10300 fluorescence intensity (a.u.)
13,TTGTAATAGGGGTATTTTGGTCACTTCGTGCTAGCAATTTCGGAGTCACCTAGTGCAG,11400 fluorescence intensity (a.u.)
14,AGTTCCTCTATTGTTCTCTCTCCCATTCTGTCTCTCACTCCGGAGTCACCTAGTGCAG,9610 fluorescence intensity (a.u.)
15,CATCTCGCTCTCGCTGCCGGCACGGCTCGCGACTCGTCGCCGGAGTCACCTAGTGCAG,10300 fluorescence intensity (a.u.)
16,GCCCGCCCGTCCCGTCCGACGTCCGCGTCACGCACGCGCGCGGAGTCACCTAGTGCAG,10100 fluorescence intensity (a.u.)
17,TGCTTTTCTACTCCTCAACTCCGCTCCACTCTCCACCCGGCGGAGTCACCTAGTGCAG,8160 fluorescence intensity (a.u.)
18,ACGCCACGCCACCGGCCACCACGACGACCGATCTGTTCATCGGAGTCACCTAGTGCAG,8780 fluorescence intensity (a.u.)
19,TAGTAAGTGTTGCTGTGATATCTATAATGTATCTGTTTTTCGGAGTCACCTAGTGCAG,8940 fluorescence intensity (a.u.)
20,ACGCTTGGGTAGCCCTCACTCCCGTGGATTTGCCACCGTTCGGAGTCACCTAGTGCAG,8480 fluorescence intensity (a.u.)
21,CGTAGGACTAGGAGGGGTCAGGTTGGCTTTTTTTAGATAGCGGAGTCACCTAGTGCAG,10300 fluorescence intensity (a.u.)
